This experiment is described as follows: qHTS Assay to Find Inhibitors of Chronic Active B-Cell Receptor Signaling. Conditions: ABC-DLBCL IkBa-CBG/CBR reporter, luminescence ratio (green luciferase fused to IkBa over red control in TMD8 lymphoma cells), 4 h. Summed up: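 Compounds up to 46 uM were incubated four hours with TMD8 cells whose green CBG68 luciferase is fused to IkappaBalpha; red CBR luminescence normalised the signal, and concentration-effect curves were fitted to fusion, red and ratio data.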
In general terms: Quantitative high-throughput screening tests each substance at several concentrations.

[1] abbreviates: measured here: CBR red luminescence, cell number.
[2] abbreviates: measured here: IkBa-CBG green luminescence.

This is one part of the list. These are further read-outs of the screen, such as a control signal, another cell line or another target. No call is given for them. Compounds called inactive in the main read-out are mostly missing here. Potencies come from curve fits of mixed quality, noted in brackets.

For orientation: AC50 means the concentration giving half of the maximal activity seen.

As for `C/C(CC(=O)Nc1ccc(C)c(Cl)c1)=N\NC(=O)c1cccc(O)c1`, under setting [1], the half-maximal activity concentration (AC50) is 2.82 µM [falling, partial curve].
`Cc1ccccc1NC(=O)C1CCC(=O)N1` (configuration not stated): under setting [1], the AC50 was 20 µM [rising, single point].
Take `COc1ccc(S(=O)(=O)N(C)C[C@H]2Oc3c(NC(=O)Nc4ccc(C(F)(F)F)cc4)cccc3C(=O)N([C@H](C)CO)C[C@@H]2C)cc1`: under setting [1], the AC50 is 18.4 µM [falling, partial curve, poor fit].
The same measure, in the same setting: next, `COC(=O)CN(c1ccc(OC)cc1)S(=O)(=O)c1ccc(OC)c(OC)c1`: 16.4 µM [rising, partial curve]; `COc1cccc2cc(-c3cn4c(n3)sc3cc(F)ccc34)c(=O)oc12`: 0.708 µM [falling, full curve].
As for `COc1ccc(C(=O)NCC(c2cccs2)S(=O)(=O)c2ccc(F)c(C)c2)cc1` (configuration not stated), the AC50 under setting [1] was 11.2 µM [rising, single point].
The same measure, in the same setting: the value for `Cc1ccc(F)c([C@H]2[C@@H]3C=CCC[C@@]3(C)C(=O)N2Cc2ccccc2)c1` was 14.1 µM [falling, single point]; that for `CCOc1ccc(CCNC(=O)c2cccc(NC3=NC4CS(=O)(=O)CC4S3)c2)cc1OCC` (configuration not stated) was 2.51 µM [rising, partial curve, poor fit].
In the case of `C=CCn1c(O)c(N=NC(=S)Nc2ccccc2C)c2cc(S(=O)(=O)N3CCOCC3)ccc21`, the AC50 reads like this: under setting [1], 29.1 µM [rising, single point]; under setting [2], 2.06 µM [falling, partial curve, poor fit].
`O=C(CCN1C(=O)COc2ccccc21)NCCC1=CCCCC1`: the AC50 under setting [1] was 25.9 µM [rising, partial curve, poor fit].
Regarding `O=C(Nc1ccc(Cl)c(Cl)c1)Oc1ccc(NC(=O)c2ccco2)cc1`, the concentration at half-maximal activity (AC50) under setting [1] was 2.06 µM [rising, partial curve, poor fit].
Same read-out and setting: the value for `Cc1c(CCC(=O)NCCC(=O)O)c(=O)oc2cc3occ(-c4ccccc4)c3cc12` was 17.8 µM [rising, single point]; that for `COc1ccc(-c2cc(C(=O)Nc3ccccc3SC)no2)cc1` was 1.03 µM [falling, full curve, poor fit]; that for `O=C(Nc1ccccc1NC(=O)NC1CCCCC1)NC1CCCCC1` was 0.731 µM [falling, full curve, poor fit].
In the case of `O=C(/C=C/c1ccccc1)Oc1cccc2cccnc12`, the AC50 is, setting by setting: under setting [1], 5.01 µM [falling, full curve]; under setting [2], 5.62 µM [falling, single point].
With `Cc1ccc(S(=O)(=O)N(C)c2c(C)ccc(S(=O)(=O)Nc3ccncc3)c2C)cc1`, the AC50 under setting [1] is 23.1 µM [rising, partial curve, poor fit].
Regarding `Nc1ncnc(Oc2cccc3cccnc23)c1[N+](=O)[O-]`, the AC50 runs as follows: under setting [1], 22.4 µM [falling, single point]; under setting [2], 35.5 µM [falling, single point].
With `COc1cc2cc(Oc3ccc4ccc(=O)oc4c3)c(=O)oc2cc1OC(=O)/C=C/c1ccccc1`, the AC50 under setting [1] was 8.91 µM [rising, partial curve, poor fit].
Turning to `CCOc1ccccc1OCc1nn2c(COc3ccccc3)nnc2s1`, under setting [1], the AC50 is 29.1 µM [rising, single point].
Still for that read-out and setting: the value for `Nc1ccc2nc(CCCCCCCCc3nc4ccc(N)cc4[nH]3)[nH]c2c1` was 0.794 µM [falling, full curve, poor fit]; that for `Cc1ccc(-c2csc(NC(=O)c3ccc(-c4ccccc4)cc3)n2)o1` was 14.6 µM [falling, partial curve, poor fit]; that for `CC(=O)Nc1nnc(COc2ccc(Cl)cc2)s1` was 11.2 µM [falling, partial curve, poor fit].
In the case of `Cc1nc2c(Br)cc(Br)cc2cc1O`, the AC50 under setting [2] is 29.1 µM [rising, partial curve, poor fit].
Consider `FC(F)(F)c1ccccc1NC(=S)NN=C1CCCCCC1`, for which the AC50 under setting [1] is 10 µM [falling, partial curve] and the concentration at half-maximal activity (AC50) under setting [2] is 25.1 µM [falling, single point].
For `CC1CC(C)CN(C(=O)COC(=O)c2cc3ccccc3oc2=O)C1` (configuration not stated), the concentration at half-maximal activity (AC50) under setting [1] is 0.13 µM [rising, full curve, poor fit].
The same measure, in the same setting: the value for `CC(C)(C)N(NC(=O)Nc1ccccc1)C(=O)c1ccccc1Cl` was 0.891 µM [falling, full curve, poor fit]; that for `Cc1ccc(-c2csc3ncnc(OCC(=O)NC(=O)NCc4ccco4)c23)cc1` was 12.6 µM [falling, partial curve, poor fit]; that for `CC(C)CN(C(=O)COC(=O)C12CC3CC(CC(C3)C1)C2)c1c(N)n(Cc2ccccc2)c(=O)[nH]c1=O` was 0.651 µM [rising, full curve].
In the case of `NC(N)=Nc1nc(-c2ccccc2)c2cc(Cl)ccc2n1`, the AC50 reads like this: under setting [1], 3.98 µM [falling, partial curve, poor fit]; under setting [2], 3.16 µM [rising, full curve].
Regarding `Nc1c(NCCCN2CCOCC2)c2ccccc2oc1=O`, the AC50 under setting [1] was 5.17 µM [falling, full curve].
Regarding `N#Cc1c2c(c(Nc3ccc(O)cc3)n3c1nc1ccccc13)CCC2`, under setting [1], the AC50 is 18.4 µM [falling, single point].
The same measure, in the same setting: the value for `O=[N+]([O-])c1ccc(N=Nc2c(O)[nH]c3ccc(F)cc23)cc1` was 0.0891 µM [rising, full curve, poor fit].
On the same count and under the same terms, the value for `CC1CCCN(C(=O)c2cccc(S(=O)(=O)Nc3cc(C(F)(F)F)ccc3Cl)c2)C1` (configuration not stated) was 29.1 µM [falling, single point].
Same read-out and setting: the value for `Cc1ccccc1NC1=C/C(=N\S(=O)(=O)c2ccc(C(=O)O)cc2)c2ccccc2C1=O` was 5.01 µM [falling, full curve, poor fit].
For the compound `CCCC1(C(=O)OCC)NC(c2cc(OC)c(OC)c(OC)c2)C2C(=O)N(CC)C(=O)C21` (configuration not stated), the AC50 under setting [1] was 5.8 µM [rising, full curve, poor fit].
With `O=[N+]([O-])c1ccc(N/N=C\c2ccccc2OCc2ccccc2)cc1`, the AC50 under setting [1] is 9.2 µM [rising, partial curve].
On the same count and under the same terms, next, `CC1CC(C)CN(CCCNC(=O)CCNC(=O)Cn2cnc3ccccc3c2=O)C1` (configuration not stated): 0.112 µM [rising, full curve, poor fit].

The values are drawn from PubChem BioAssay AID493014 (National Center for Advancing Translational Sciences (NCATS), 2011).
